Test results reported in patent US8383880B2, “Infertility control of genetically modified fish” (Academia Sinica, priority 2009, dated 2013).
For at least one compound, name, drawing or mass did not settle the structure.

Experiments:
[1] = test system: female Tg(ZP:NTR-EGFP) fish; test: Evaluation of reproductive capacity (fertilized eggs, cross with male AB strain); type: in vivo, zebrafish; conditions: all Mtz-treated Tg(ZP:NTR-EGFP) female fish crossed with AB strain male, n=20
[2] = test system: ovaries of Tg(ZP:NTR-EGFP) female fish; test: TUNEL cell death assay of ovary sections; type: in vivo, zebrafish; conditions: Tg(ZP:NTR-EGFP) female fish with Mtz-induced atrophy

## Cc1ncc([N+](=O)[O-])n1CCO [Mtz]
[1]
  spawning activity / fertility: lost spawning activity and became infertile
[2]
  TUNEL cell death signal in the ovaries: significant signal of cell death
